# Results taken from the supplement of paper PMC7238544.
# ± gives the standard deviation of the averaged measurements. This is one part of the list. The data scatter; read single values as rough.
# What was measured:
# hAMSC donor 1 [1] = test: Hoechst total cell count ratio vs vehicle control; higher = more cells (less toxicity)
# hAMSC donor 2 [2] = test: as above
# hAMSC donor 1 [3] = test: transgenic luciferase activity (RLU/mg protein) fold change vs vehicle control (ratio); higher = more transgene expression
# hAMSC donor 2 [4] = test: as above
# hAMSC donor 1 [5] = test: transfection efficiency (EGFP+ cells / Hoechst count) fold change vs vehicle control (ratio); hAMSC are human adipose-derived mesenchymal stem cells given an EGFP-luciferase plasmid by lipofection; higher = enhanced transfection
# hAMSC donor 2 [6] = test: as above
# [7] = priming compound concentration 0.2 µM
# [8] = priming compound concentration 1.7 µM
# [9] = priming compound concentration 13 µM
SMILES,Hoechst total cell count ratio (hAMSC donor 1 [1]; [7]),Hoechst total cell count ratio (hAMSC donor 1 [1]; [8]),Hoechst total cell count ratio (hAMSC donor 1 [1]; [9]),Hoechst total cell count ratio (hAMSC donor 2 [2]; [7]),Hoechst total cell count ratio (hAMSC donor 2 [2]; [8]),Hoechst total cell count ratio (hAMSC donor 2 [2]; [9]),transgenic luciferase activity (hAMSC donor 1 [3]; [7]),transgenic luciferase activity (hAMSC donor 1 [3]; [8]),transgenic luciferase activity (hAMSC donor 1 [3]; [9]),transgenic luciferase activity (hAMSC donor 2 [4]; [7]),transgenic luciferase activity (hAMSC donor 2 [4]; [8]),transgenic luciferase activity (hAMSC donor 2 [4]; [9]),transfection efficiency (hAMSC donor 1 [5]; [7]),transfection efficiency (hAMSC donor 1 [5]; [8]),transfection efficiency (hAMSC donor 1 [5]; [9]),transfection efficiency (hAMSC donor 2 [6]; [7]),transfection efficiency (hAMSC donor 2 [6]; [8]),transfection efficiency (hAMSC donor 2 [6]; [9])
CCN1CCC[C@H]1CNC(=O)c1cc(S(N)(=O)=O)ccc1OC [Levosulpiride],1.2 ± 0.059,1.03 ± 0.13,1.08 ± 0.15,1.06 ± 0.22,1.05 ± 0.25,1.43 ± 0.42,0.586 ± 0.23,0.832 ± 0.28,2.32 ± 2.5,0.62 ± 0.21,0.752 ± 0.14,1.16 ± 0.64,1.43 ± 0.52,1.28 ± 0.49,1.32 ± 0.14,1.26 ± 0.4,1.18 ± 0.41,1.1 ± 0.21
OCCN(CCO)c1nc(N2CCCCC2)c2nc(N(CCO)CCO)nc(N3CCCCC3)c2n1 [Dipyridamole],1.1 ± 0.017,1.16 ± 0.092,1.21 ± 0.033,1.1 ± 0.094,1.15 ± 0.089,1.16 ± 0.24,0.973 ± 0.13,1.41 ± 0.46,0.847 ± 0.18,0.557 ± 0.093,0.761 ± 0.044,0.545 ± 0.1,1.11 ± 0.11,1.48 ± 0.62,0.995 ± 0.076,0.94 ± 0.17,0.967 ± 0.08,0.957 ± 0.19
NC(=O)c1ncn([C@@H]2O[C@H](CO)[C@@H](O)[C@H]2O)n1 [Ribavirin],1.03 ± 0.099,1.01 ± 0.03,1.15 ± 0.084,1.27 ± 0.16,1.01 ± 0.12,1.33 ± 0.13,1.05 ± 0.94,0.86 ± 0.11,0.536 ± 0.21,0.426 ± 0.21,1.69 ± 0.74,1.56 ± 0.2,1.27 ± 0.16,1.35 ± 0.19,0.906 ± 0.27,0.93 ± 0.043,1.17 ± 0.056,1.21 ± 0.22
CCCCN1CCCC1CNC(=O)c1cc(C#N)c2ccccc2c1OC (stereo not drawn) [Nafadotride],1.13 ± 0.25,1.39 ± 0.2,1.13 ± 0.16,1.48 ± 0.26,1.07 ± 0.028,1.11 ± 0.048,0.558 ± 0.31,1.73 ± 1.4,1.94 ± 0.48,1.04 ± 0.34,0.855 ± 0.13,0.685 ± 0.12,0.677 ± 0.17,0.998 ± 0.12,1.58 ± 0.53,0.962 ± 0.23,1.44 ± 0.039,0.997 ± 0.069
CC(C)(C)C(O)/C=C/c1ccc2c(c1)OCO2 (stereo not drawn) [Stiripentol],1.17 ± 0.022,1.32 ± 0.16,1.17 ± 0.028,1.27 ± 0.18,0.837 ± 0.12,1.27 ± 0.16,1.17 ± 0.58,1.11 ± 0.34,0.951 ± 0.33,0.675 ± 0.19,0.902 ± 0.21,0.874 ± 0.071,1.36 ± 0.42,1.03 ± 0.27,1.27 ± 0.38,0.943 ± 0.11,1.21 ± 0.16,1.11 ± 0.28
CC1=C(/C=C/C(C)=C/C=C/C(C)=C/C(=O)O)C(C)(C)CCC1 [trans-Retinoic acid],1 ± 0.038,0.877 ± 0.15,0.912 ± 0.039,0.906 ± 0.21,0.754 ± 0.022,1.28 ± 0.16,0.812 ± 0.12,0.687 ± 0.22,0.706 ± 0.26,0.594 ± 0.18,0.709 ± 0.022,0.711 ± 0.071,1.23 ± 0.098,0.839 ± 0.38,1.13 ± 0.34,1.29 ± 0.22,1.12 ± 0.038,0.718 ± 0.15
